System: Caco-2 cell monolayers
Experiment: Barrier properties of Caco-2 cell monolayers: mannitol permeability and TEER
Conditions: for TEER After: after 120 min experiment; for TEER Before: before experiment
[1] = A–B transport pH 6.0/7.4, 20 mg/mL test substance
[2] = A–B transport pH 7.4/7.4, 20 mg/mL test substance

| Structure (SMILES) | TEER After [1] | TEER Before [1] | TEER After [2] | TEER Before [2] |
| --- | --- | --- | --- | --- |
| NC1(C(=O)O)CC2CCC1C2 (stereo not drawn) [BCH, 2‐Amino‐2‐norbornanecarboxylic acid] | 349 ± 57 Ω·cm^2 | 491 ± 54 Ω·cm^2 | 299 ± 28 Ω·cm^2 | 512 ± 40 Ω·cm^2 |
| O=C(O)[C@@H]1CCCN1 [Pro, L‐proline] | 354 ± 56 Ω·cm^2 | 509 ± 64 Ω·cm^2 | 135 ± 23 Ω·cm^2 | 486 ± 62 Ω·cm^2 |
| CNCC(=O)O [Sar, sarcosine] | 401 ± 69 Ω·cm^2 | 514 ± 54 Ω·cm^2 | 171 ± 53 Ω·cm^2 | 467 ± 48 Ω·cm^2 |
